Experimental data: PubChem BioAssay AID720504 (National Center for Advancing Translational Sciences (NCATS), 2013)
The whole screen tested about 360,000 compounds, of which about 10,000 (2.8%) were called active. Inconclusive means that the source gave no clear call. Such entries were picked first, then a sample of the others. Calls come from the whole dose curve; as a rule, active = well fitted inhibition curve with a large enough effect; inconclusive = small, poorly fitted or top-dose-only effect; inactive = flat fitted curve, though single readings scatter. Where the call is inconclusive, the potency comes from a doubtful curve fit.

Protein sequences, listed by entry. Tags and fused reporters are not part of them.
UniProt P53350, whole entry, looked up: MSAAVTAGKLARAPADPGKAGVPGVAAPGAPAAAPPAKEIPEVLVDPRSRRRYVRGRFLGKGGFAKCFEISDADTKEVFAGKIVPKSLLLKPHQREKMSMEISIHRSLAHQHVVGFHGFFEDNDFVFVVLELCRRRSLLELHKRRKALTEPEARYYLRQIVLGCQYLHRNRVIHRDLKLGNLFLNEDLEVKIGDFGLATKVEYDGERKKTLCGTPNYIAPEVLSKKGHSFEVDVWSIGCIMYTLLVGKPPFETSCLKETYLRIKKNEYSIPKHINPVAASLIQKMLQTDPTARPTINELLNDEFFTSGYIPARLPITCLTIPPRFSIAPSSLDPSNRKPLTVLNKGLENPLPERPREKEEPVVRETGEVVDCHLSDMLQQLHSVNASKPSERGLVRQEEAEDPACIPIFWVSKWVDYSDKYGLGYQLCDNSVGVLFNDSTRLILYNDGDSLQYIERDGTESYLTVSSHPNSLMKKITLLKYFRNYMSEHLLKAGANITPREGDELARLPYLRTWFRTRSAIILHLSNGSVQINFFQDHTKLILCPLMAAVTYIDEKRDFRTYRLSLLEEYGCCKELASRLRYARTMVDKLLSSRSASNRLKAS

molecular target: Serine/threonine-protein kinase PLK1 (Homo sapiens) (UniProt P53350); assay: qHTS for Inhibitors of PLK1-PDB (polo-like kinase 1 - polo-box domain): Primary Screen; details: Plk1 PBD binding of FITC phosphopeptide, fluorescence polarization; note: nearly all actives have a fitted effect of over 65% in size; for max response, negative = inhibition: series mostly up to about 57 µM
% is set by controls: 0 for no effect and ±100 for the full control effect; potency is the fitted concentration of half-maximal effect.

Compound | Potency | max response, negative = inhibition
O=C(Cn1c(=O)n(CC2CCCO2)c(=O)c2ccccc21)c1ccc(Cl)c(Cl)c1 (configuration not stated) | inconclusive: 29.9 µM [inhibitor, partial curve] | 
Cc1sc2nc(CSCC(=O)Nc3ccccc3C#N)[nH]c(=O)c2c1C | inconclusive: 26.7 µM [inhibitor, single point] | 
COc1ccc(-c2nc(CS(=O)CC(=O)NC3CCCC3)c(C)o2)cc1 (configuration not stated) | active: 26.7 µM | 
Cc1ccc(-c2nn(-c3ccccc3)cc2/C=N/NC(=O)c2ccncc2)o1 |  | inactive: -13.5%
COc1cc(SC)ccc1C(=O)Nc1ccon1 | inconclusive: 26.7 µM [inhibitor, partial curve] | 
CCc1nc(NCCc2ccccn2)c2nnn(Cc3ccccc3F)c2n1 | inconclusive: 23.8 µM [inhibitor, partial curve] | 
C/C(CS(=O)(=O)c1ccc(Cl)cc1)=N/NC(N)=S |  | inactive: 3.99%
CN(C)CCCNc1ncnc2oc(-c3ccccc3)c(-c3ccccc3)c12 |  | inactive: 17.6%
Cc1ccc(S(=O)(=O)c2nc(-c3ccccc3)oc2N2CCC(C(N)=O)CC2)cc1 |  | inactive: -3.06%
O=C(O)c1cccc(NC(=O)c2cn(-c3ccccc3)nc2-c2cccc(Br)c2)c1 | inconclusive: 37.7 µM [inhibitor, single point] | 
Cn1cnc([N+](=O)[O-])c1S(=O)(=O)c1cccc(Cl)c1 | inconclusive: 9.47 µM [inhibitor, partial curve] | 
Cc1cccc(NC(=S)NCCO)c1C |  | inactive: -1.13%
C=CCNc1cnn(-c2ccc(C)cc2)c(=O)c1Sc1ccc(C)cc1 |  | inactive: -0.939%
CCn1c(N)c(C(=O)NCCCOC)sc1=S | active: 21.2 µM | 
CCc1cccc(CC)c1NC(=O)C1CC(=O)N(c2ccc3c(c2)OCCO3)C1 (configuration not stated) |  | inactive: -5.9%
O=C(c1ccccc1)c1ccccn1 |  | inactive: -0.637%
Cc1cc(/C=C2\SC(=O)N(C)C2=O)c(C)n1-c1ccc(S(N)(=O)=O)cc1 |  | inactive: -4.5%
O=[N+]([O-])c1ccc(OCCOc2ccccc2/C=N/n2cnnc2)cc1 |  | inconclusive: -20.6% [inhibitor]
COc1cc(S(=O)(=O)N2CCOCC2)ccc1NC(=O)CSc1nnc(N)s1 |  | inactive: -11.5%
O=C(CCl)N1c2ccccc2Sc2c1ccc1ccccc21 | inconclusive: 15 µM [inhibitor, partial curve] | 
CCOc1ccc(C2/C(=C(\O)c3ccc4c(c3)OCCO4)C(=O)C(=O)N2CCN2CCOCC2)cc1OC (configuration not stated) |  | inactive: 2.45%
CN1C(=S)SC(C)(NO)C1(C)C (configuration not stated) | inconclusive: 26.7 µM [inhibitor, partial curve] | 
c1ccc(CNC23CC4CC(CC(C4)C2)C3)nc1 | inconclusive: 21.2 µM [inhibitor, single point] | 
CCCSC1=C(C#N)C(c2ccc(Cl)cc2Cl)CC(=O)N1 (configuration not stated) | inconclusive: 18.9 µM [inhibitor, partial curve] | 

Compound | Potency | max response, negative = inhibition
O=C(O)c1ccc(N2CCN(C(c3ccccc3)c3ccccc3)CC2)c([N+](=O)[O-])c1 | inconclusive: 26.7 µM [inhibitor, single point] | 
COc1cc(NS(=O)(=O)c2ccc(NC(=S)NC(=O)c3sc4ccccc4c3Cl)cc2)ncn1 | active: 15 µM | 
Cc1cc(C)cc(OCC(=O)NNC(=S)NC(=O)C2CC2)c1 |  | inactive: -15%
O=C(Nc1nnc(SCc2ccc(Cl)cc2Cl)s1)C1COc2ccccc2O1 (configuration not stated) | inconclusive: 23.8 µM [inhibitor, partial curve] | 
c1ccc(Cc2nnc3sc(-c4ccncc4)nn23)cc1 | inconclusive: 7.52 µM [inhibitor, partial curve] | 
CCOC(=O)Cn1c(=O)c(F)cn(Cc2ccc(OC)c([N+](=O)[O-])c2)c1=O | inconclusive: 23.8 µM [inhibitor, partial curve] | 
COc1ccc(-c2csc(NC3OC(=O)c4c3ccc(OC)c4OC)n2)cc1OC (configuration not stated) | inconclusive: 18.9 µM [inhibitor, partial curve] | 
Cc1ccc(C)c(OCCCC(=O)Nc2ccccc2C(N)=O)c1 |  | inactive: -10.5%
Cc1ccccc1C(=O)N1CCN(c2ccc(NC(=S)NC(=O)c3ccco3)cc2)CC1 |  | inconclusive: -32.2% [inhibitor]
COCCc1nc2ccc(C(=O)NCc3cccc(-n4cccn4)c3)cc2o1 | inconclusive: 0.752 µM [inhibitor, single point] | 
Cc1cccc(C)c1NC(=O)COC(=O)c1ccccc1Nc1ccccc1 |  | inactive: -15.4%
COc1ccc(Cc2nc3ccc(C(=O)N4CCN(C)C(C)C4)cc3o2)cc1OC (configuration not stated) |  | inactive: -9.44%
CCOc1cc(/C=N/Nc2nc(-c3cccc(S(=O)(=O)N4CCCC4)c3)cs2)ccc1O |  | inactive: -1.85%
CC(=O)Nc1nnc(S(=O)(=O)N2CCN(c3ccc([N+](=O)[O-])cc3Cl)CC2)s1 | inconclusive: 26.7 µM [inhibitor, single point] | 
Nc1nonc1C(=O)N/N=C/c1ccc(-c2ccc(Cl)c(C(=O)O)c2)o1 |  | inactive: -11.9%
CN(C)S(=O)(=O)c1ccc(NC(=O)CSc2nnnn2C)cc1 |  | inactive: -8.18%
O=C(/C=C\Nc1ccccn1)c1ccccc1 | inconclusive: 29.9 µM [inhibitor, partial curve] | 
Cc1cc(NS(=O)(=O)c2ccc(Nc3nc(-c4ccc(O)cc4)cs3)cc2)no1 | inconclusive: 21.2 µM [inhibitor, single point] | 
COc1ccc([N+](=O)[O-])c(S(=O)(=O)c2ccccc2)n1 | active: 9.47 µM | 
O=C1C2CCCN2C(=S)N1c1cc(Cl)ccc1Cl (configuration not stated) | inconclusive: 10.6 µM [inhibitor, partial curve] | 
O=C(c1ccc(Cl)cc1)c1ccccc1C(=O)N1CCOCC1 |  | inactive: -6.15%
COc1ccccc1C(=O)NNC(=S)NC(=O)c1sc2ccccc2c1Cl | inconclusive: 18.9 µM [inhibitor, partial curve] | 
CCN1CCCC1CNCC(O)COc1ccc(C(C)(C)C)cc1C (configuration not stated) | inconclusive: 23.8 µM [inhibitor, partial curve] | 
CCN(CC)CCC=C(c1cccs1)c1cccs1 | inconclusive: 29.9 µM [inhibitor, partial curve] | 

Compound | Potency | max response, negative = inhibition
CC(Oc1cc2oc(=O)cc(-c3ccccc3)c2cc1Cl)C(=O)NCC1CCC(C(=O)O)CC1 (configuration not stated) |  | inactive: -1.53%
COc1ccccc1NC(=O)c1ccc(NC(=O)COC(=O)C2(C)CC2(Cl)Cl)cc1 (configuration not stated) | active: 21.2 µM | 
COc1ccc(/C=C2\SC(=S)N(CCCC(=O)NNC(=O)c3ccccc3O)C2=O)cc1 | active: 23.8 µM | 
c1ccc(Sc2ccncc2)cc1 | inconclusive: 18.9 µM [inhibitor, partial curve] | 
CC1=NN(C(N)=S)C(=O)C1N=Nc1cccc(C(=O)O)c1 (configuration not stated) |  | inconclusive: -32.8% [inhibitor]
c1ccc(COc2cccc(CN3CCc4ccccc4C3)c2)cc1 |  | inactive: 4.21%
COC(=O)c1ccccc1S(=O)(=O)N1CCCC(c2nc3c(nnn3Cc3ccc(C)cc3)c(=O)[nH]2)C1 (configuration not stated) | inconclusive: 37.7 µM [inhibitor, single point] | 
COc1cc(/C=C2/C(=N)N3C(=NC2=O)SN=C3S(C)(=O)=O)ccc1OC(=O)c1ccco1 | inconclusive: 29.9 µM [inhibitor, partial curve] | 
CC1CN(c2nnc(-c3ccccc3)c3ccccc23)CC(C)O1 (configuration not stated) | active: 21.2 µM | 
Cc1ccc(C(=O)NC(=S)NCc2cccnc2)cc1 | inconclusive: 21.2 µM [inhibitor, partial curve] | 
COc1c(OC(C)=O)ccc(/C=N\NC(=O)c2ccc(Br)cc2)c1[N+](=O)[O-] | inconclusive: 26.7 µM [inhibitor, partial curve] | 
CCC(=O)OC1(C)C(=O)C2=COC(c3ccc(OC)cc3)=CC2=C(Br)C1=O (configuration not stated) | inconclusive: 15 µM [inhibitor, single point] | 
Cc1cc(C)c2sc(NC(=O)c3ccc(N4C(=O)CCC4=O)cc3)nc2c1 |  | inactive: 3.24%
CC1=NNC(=O)C1C(c1ccc(Cl)cc1)C(C#N)C#N (configuration not stated) | active: 21.2 µM | 
CCCn1nc(C(=O)NNC(=O)CCCOc2ccc(OC)cc2)c2ccccc2c1=O |  | inactive: 3.35%
Cc1ccc(C)c(-n2c3nc(=O)[nH]c(=O)c-3cc3cc([N+](=O)[O-])ccc32)c1 | active: 7.52 µM | 
O=C1[C@@H](c2ccccc2)[C@@H](c2ccccc2)N1c1cccnc1 | inconclusive: 16.8 µM [inhibitor, partial curve] | 
O=C(COC(=O)c1ccccc1O)Nc1ncc(Cl)cc1Cl | inconclusive: 26.7 µM [inhibitor, partial curve] | 
O=C(OCC(=O)C12CC3CC(CC(C3)C1)C2)c1cccnc1 | inconclusive: 26.7 µM [inhibitor, single point] | 
c1cncc(-c2nn3c(Cn4cnc5ccccc54)nnc3s2)c1 | active: 4.74 µM | 
CCOC(=O)C1=C(CN2CCOCC2)NC(=O)NC1c1cccc([N+](=O)[O-])c1 (configuration not stated) |  | inactive: -7.58%
O=C(CCN1C(=O)/C(=C/c2cccs2)SC1=S)Nc1ccc(C(=O)O)c(O)c1 | active: 26.7 µM | 
Cc1ccc(C(=O)NNC(=O)CSc2nnc3c(n2)[nH]c2ccc(C)cc23)cc1 | inconclusive: 37.7 µM [inhibitor, single point] | 
CCC(Sc1ccc2nnc(-c3ccc(F)cc3)n2n1)C(=O)O (configuration not stated) | inconclusive: 15.8 µM [inhibitor, partial curve] | 

Exported as comma-separated lines: three of the compounds above
Compound,Potency,"max response, negative = inhibition"
COc1ccccc1NC(=O)c1ccc(NC(=O)COC(=O)C2(C)CC2(Cl)Cl)cc1 (configuration not stated),active: 21.2 µM,
CC1=NN(C(N)=S)C(=O)C1N=Nc1cccc(C(=O)O)c1 (configuration not stated),,inconclusive: -32.8% [inhibitor]
Cc1cc(C)c2sc(NC(=O)c3ccc(N4C(=O)CCC4=O)cc3)nc2c1,,inactive: 3.24%
